According to PubChem BioAssay AID248 (DTP/NCI, 2004):
The list does not hold the whole screen: it is rich in T/C values a quarter to a half above the control, in often repeated tests (any T/C) and in doses without a T/C. Further doses and runs are listed elsewhere. T/C: endpoint of the treated group in % of that of the vehicle group. Some entries give survivors of the animals treated and no T/C: the source files T/C as zero there, which appears to mark a toxic dose or a test without result, not a measured value. Some doses without a T/C left all or most animals alive at the check, yet need not have been tolerated: survival well below the control is almost never listed, so the zero probably covers shortened survival too. Counts of survivors are from the toxicity check (mostly the fifth day) where no day follows; animals may have died later. Schedule codes are those of the source, read here as Q, the interval in days (D) or hours (H), X, the number of doses. Some doses were run more than once; the values are given in rising order. Some schedule codes hold Z or #, which are not explained here. For survival time, this PubChem deposit counts one and a half times the control or more as active, and values a quarter to a half above the control carry no call in these data; other NCI protocols may use other cut-offs. Some T/C values carry the count of animals alive at the toxicity check (mostly the fifth day); without a count, all were alive then.

Test system: L1210 leukemia ip in BDF1 mice, survival T/C
Assay: NCI In Vivo Anticancer Drug Screen. Data for tumor model L1210 Leukemia (intraperitoneal) in B6D2F1 (BDF1) mice
Settings: T/C endpoint: mean survival time, higher T/C = longer survival

## OC(CBr)C(O)C(O)C(O)CBr (stereo not drawn)
dose: 37.5 mg/kg/injection, schedule: Q03HX024 (ip), vehicle: carboxymethylcellulose (CMC)
  T/C: 148 % of control
dose: 50.0 mg/kg/injection, schedule: Q01DX009 (ip), vehicle: other
  T/C: 131 % of control [5 of 6 alive]
dose: 62.5 mg/kg/injection, schedule: Q01DX Z (ip), vehicle: carboxymethylcellulose (CMC)
  survivor count: 6 of 6
dose: 62.5 mg/kg/injection, schedule: Q04DX024 (ip), vehicle: carboxymethylcellulose (CMC)
  T/C: 132 % of control
dose: 75.0 mg/kg/injection, schedule: Q06HX012 (ip), vehicle: carboxymethylcellulose (CMC)
  T/C: 130 % of control
dose: 100.0 mg/kg/injection, schedule: Q01DX009 (ip), vehicle: other
  T/C: 135 % of control
dose: 120.0 mg/kg/injection, schedule: Q01DX009 (ip), vehicle: carboxymethylcellulose (CMC)
  T/C: 139 % of control
dose: 120.0 mg/kg/injection, schedule: Q01DX009 (sc), vehicle: carboxymethylcellulose (CMC)
  T/C: 136 % of control
dose: 120.0 mg/kg/injection, schedule: Q## X024 (ip), vehicle: carboxymethylcellulose (CMC)
  survivor count: 1 of 10
dose: 125.0 mg/kg/injection, schedule: Q01DX015 (ip), vehicle: carboxymethylcellulose (CMC)
  T/C: 129 % of control
dose: 125.0 mg/kg/injection, schedule: Q03HX008 (ip), vehicle: carboxymethylcellulose (CMC)
  survivor count: 9 of 10
dose: 125.0 mg/kg/injection, schedule: Q04DX024 (ip), vehicle: carboxymethylcellulose (CMC)
  survivor count: 9 of 10
dose: 125.0 mg/kg/injection, schedule: Q#A X034 (ip), vehicle: carboxymethylcellulose (CMC)
  T/C: 128 % of control
dose: 150.0 mg/kg/injection, schedule: Q01DX009 (ip), vehicle: carboxymethylcellulose (CMC)
  T/C: 138 % of control
dose: 150.0 mg/kg/injection, schedule: Q03HX024 (ip), vehicle: carboxymethylcellulose (CMC)
  survivor count: 8 of 8
dose: 150.0 mg/kg/injection, schedule: Q04DX003 (ip), vehicle: carboxymethylcellulose (CMC)
  T/C: 125 % of control
dose: 150.0 mg/kg/injection, schedule: Q12HX006 (ip), vehicle: carboxymethylcellulose (CMC)
  T/C: 146 % of control
dose: 160.0 mg/kg/injection, schedule: Q01DX009 (ip), vehicle: saline
  T/C: 131 % of control [5 of 6 alive]
dose: 200.0 mg/kg/injection, schedule: Q01DX009 (ip), vehicle: other
  T/C: 135 % of control
dose: 200.0 mg/kg/injection, schedule: Q04DX003 (ip), vehicle: Klucel (hydroxypropylcellulose) (HPC)
  T/C: 135 % of control
dose: 200.0 mg/kg/injection, schedule: Q## X003 (ip), vehicle: other
  T/C: 149 % of control
dose: 240.0 mg/kg/injection, schedule: Q01DX005 (ip), vehicle: carboxymethylcellulose (CMC)
  survivor count: 9 of 10
dose: 240.0 mg/kg/injection, schedule: Q01DX009 (ip), vehicle: carboxymethylcellulose (CMC)
  survivor count: 9 of 10
dose: 240.0 mg/kg/injection, schedule: Q01DX009 (oral), vehicle: carboxymethylcellulose (CMC)
  T/C: 147 % of control [9 of 10 alive]
dose: 240.0 mg/kg/injection, schedule: Q## X003 (ip), vehicle: carboxymethylcellulose (CMC)
  survivor count: 9 of 10
dose: 240.0 mg/kg/injection, schedule: Q## X024 (ip), vehicle: carboxymethylcellulose (CMC)
  survivor count: 5 of 10
dose: 250.0 mg/kg/injection, schedule: Q01DX Z (ip), vehicle: carboxymethylcellulose (CMC)
  T/C: 126 and 147 % of control
dose: 250.0 mg/kg/injection, schedule: Q04DX005 (ip), vehicle: carboxymethylcellulose (CMC)
  T/C: 131 % of control
dose: 300.0 mg/kg/injection, schedule: Q04DX003 (ip), vehicle: carboxymethylcellulose (CMC)
  T/C: 135 % of control
dose: 300.0 mg/kg/injection, schedule: Q06HX012 (ip), vehicle: carboxymethylcellulose (CMC)
  survivor count: 8 of 8
dose: 300.0 mg/kg/injection, schedule: Q12HX006 (ip), vehicle: carboxymethylcellulose (CMC)
  T/C: 138 % of control
dose: 400.0 mg/kg/injection, schedule: Q01DX001 (ip), vehicle: other
  T/C: 140 % of control
dose: 400.0 mg/kg/injection, schedule: Q01DX009 (ip), vehicle: acetone
  T/C: 126 % of control
dose: 400.0 mg/kg/injection, schedule: Q01DX009 (ip), vehicle: other
  survivor count: 5 of 6
dose: 400.0 mg/kg/injection, schedule: Q## X024 (ip), vehicle: other
  T/C: 134 % of control
dose: 480.0 mg/kg/injection, schedule: Q01DX001 (ip), vehicle: carboxymethylcellulose (CMC)
  survivor count: 9 of 10
dose: 480.0 mg/kg/injection, schedule: Q01DX001 (sc), vehicle: carboxymethylcellulose (CMC)
  T/C: 134 % of control
dose: 480.0 mg/kg/injection, schedule: Q01DX005 (ip), vehicle: carboxymethylcellulose (CMC)
  survivor count: 7 of 10
dose: 480.0 mg/kg/injection, schedule: Q01DX009 (ip), vehicle: carboxymethylcellulose (CMC)
  survivor count: 9 of 10
dose: 480.0 mg/kg/injection, schedule: Q## X003 (ip), vehicle: carboxymethylcellulose (CMC)
  survivor count: 6 of 10
dose: 480.0 mg/kg/injection, schedule: Q## X003 (oral), vehicle: carboxymethylcellulose (CMC)
  T/C: 136 % of control
dose: 500.0 mg/kg/injection, schedule: Q01DX009 (ip), vehicle: carboxymethylcellulose (CMC)
  survivor count: 10 of 10
dose: 500.0 mg/kg/injection, schedule: Q01DX017 (ip), vehicle: carboxymethylcellulose (CMC)
  survivor count: 9 of 10
dose: 500.0 mg/kg/injection, schedule: Q02DX008 (ip), vehicle: carboxymethylcellulose (CMC)
  T/C: 132 % of control [5 of 6 alive]
dose: 500.0 mg/kg/injection, schedule: Q04DX003 (ip), vehicle: carboxymethylcellulose (CMC)
  T/C: 135 % of control
dose: 500.0 mg/kg/injection, schedule: Q04DX005 (ip), vehicle: carboxymethylcellulose (CMC)
  T/C: 145 % of control
dose: 600.0 mg/kg/injection, schedule: Q01DX009 (ip), vehicle: acetone
  T/C: 142 % of control
dose: 600.0 mg/kg/injection, schedule: Q08DX002 (ip), vehicle: carboxymethylcellulose (CMC)
  T/C: 141 % of control
dose: 600.0 mg/kg/injection, schedule: Q12HX006 (ip), vehicle: carboxymethylcellulose (CMC)
  survivor count: 7 of 8
dose: 800.0 mg/kg/injection, schedule: Q01DX001 (ip), vehicle: other
  T/C: 140 % of control
dose: 900.0 mg/kg/injection, schedule: Q04DX003 (ip), vehicle: acetone
  T/C: 131 % of control
dose: 960.0 mg/kg/injection, schedule: Q01DX001 (ip), vehicle: carboxymethylcellulose (CMC)
  survivor count: 8 of 10
dose: 960.0 mg/kg/injection, schedule: Q01DX005 (ip), vehicle: carboxymethylcellulose (CMC)
  survivor count: 5 of 10
dose: 960.0 mg/kg/injection, schedule: Q01DX009 (oral), vehicle: carboxymethylcellulose (CMC)
  survivor count: 8 of 9
dose: 960.0 mg/kg/injection, schedule: Q01DX009 (sc), vehicle: carboxymethylcellulose (CMC)
  survivor count: 8 of 10
dose: 960.0 mg/kg/injection, schedule: Q## X003 (ip), vehicle: carboxymethylcellulose (CMC)
  survivor count: 9 of 10
dose: 960.0 mg/kg/injection, schedule: Q## X024 (ip), vehicle: carboxymethylcellulose (CMC)
  survivor count: 10 of 10
dose: 1000.0 mg/kg/injection, schedule: Q01DX001 (ip), vehicle: carboxymethylcellulose (CMC)
  survivor count: 10 of 10
dose: 1000.0 mg/kg/injection, schedule: Q01DX009 (ip), vehicle: carboxymethylcellulose (CMC)
  survivor count: 7 of 10
dose: 1000.0 mg/kg/injection, schedule: Q01DX Z (ip), vehicle: carboxymethylcellulose (CMC)
  survivor count: 8 of 8
dose: 1000.0 mg/kg/injection, schedule: Q02DX005 (ip), vehicle: carboxymethylcellulose (CMC)
  survivor count: 8 of 10 and 10 of 10
dose: 1000.0 mg/kg/injection, schedule: Q02DX008 (ip), vehicle: carboxymethylcellulose (CMC)
  survivor count: 1 of 6
dose: 1000.0 mg/kg/injection, schedule: Q02DX009 (ip), vehicle: carboxymethylcellulose (CMC)
  survivor count: 10 of 10
dose: 1000.0 mg/kg/injection, schedule: Q04DX005 (ip), vehicle: carboxymethylcellulose (CMC)
  survivor count: 10 of 10
dose: 1200.0 mg/kg/injection, schedule: Q08DX002 (ip), vehicle: carboxymethylcellulose (CMC)
  T/C: 141 % of control
dose: 1440.0 mg/kg/injection, schedule: Q01DX001 (oral), vehicle: carboxymethylcellulose (CMC)
  T/C: 144 % of control
dose: 1440.0 mg/kg/injection, schedule: Q01DX009 (oral), vehicle: carboxymethylcellulose (CMC)
  survivor count: 10 of 10
dose: 1440.0 mg/kg/injection, schedule: Q02DX005 (oral), vehicle: carboxymethylcellulose (CMC)
  survivor count: 7 of 10
